The values that follow come from PubChem BioAssay AID328 (DTP/NCI, 2004).

This assay deals with BDF1 mice, P388 leukemia ip, median survival T/C. Kind of assay: NCI In Vivo Anticancer Drug Screen. Data for tumor model P388 Leukemia (intraperitoneal) in B6D2F1 (BDF1) mice. To be noted: T/C endpoint: median survival time, higher T/C = longer survival. A digest of the protocol: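 Each value expresses how treatment altered survival: treated-mouse outcome over vehicle-mouse outcome, both groups bearing the transplanted tumour.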

Where [1] appears, read: dose: 50.0 mg/kg/injection, schedule: Q04DX003 (ip), vehicle: saline.
[2] abbreviates: dose: 200.0 mg/kg/injection, schedule: Q01DX009 (ip), vehicle: Klucel (hydroxypropylcellulose) (HPC).
Setting [3] is: dose: 200.0 mg/kg/injection, schedule: Q01DX009 (ip), vehicle: saline.
The mark [4] stands for this setting: dose: 200.0 mg/kg/injection, schedule: Q04DX003 (ip), vehicle: Klucel (hydroxypropylcellulose) (HPC).
The mark [5] stands for this setting: dose: 200.0 mg/kg/injection, schedule: Q01DX009 (ip), vehicle: saline with Tween-80.
Setting [6] is: dose: 400.0 mg/kg/injection, schedule: Q04DX003 (ip), vehicle: Klucel (hydroxypropylcellulose) (HPC).
[7] abbreviates: dose: 100.0 mg/kg/injection, schedule: Q01DX009 (ip), vehicle: saline with Tween-80.

Structures are written as SMILES. The list is a part of this screen's results and no random one: it gathers tests that were run many times, whatever their T/C, doses with no T/C, and many T/C values between a quarter and a half above the control. Further doses and runs are listed elsewhere. T/C: endpoint of the treated group in % of that of the vehicle group. Some entries give survivors of the animals treated and no T/C: the source files T/C as zero there, which appears to mark a toxic dose or a test without result, not a measured value. Some survivor counts are full or nearly so, which does not show that the dose was tolerated: survival well below the control is almost never listed, so the zero probably covers shortened survival too. Counts of survivors are from the toxicity check (mostly the fifth day) where no day follows; animals may have died later. Schedules are NCI's codes, read here as Q, the interval in days (D) or hours (H), X, the number of doses. Some entries were tested several times; their values stand side by side, smallest first. For survival time, this PubChem deposit counts one and a half times the control or more as active, and values a quarter to a half above the control carry no call in these data; other NCI protocols may use other cut-offs. Some T/C values carry the count of animals alive at the toxicity check (mostly the fifth day); where none is given, no animal had died by that day.

As for `CC[C@](O)(C(=O)O)c1cc2n(c(=O)c1CO)Cc1cc3ccccc3nc1-2`, the T/C is, setting by setting: (dose: 0.5 mg/kg/injection, schedule: Q01DX009 (ip), vehicle: saline) 127 % of control; (dose: 1.0 mg/kg/injection, schedule: Q01DX009 (ip), vehicle: saline) 132 % of control; (dose: 6.25 mg/kg/injection, schedule: Q04DX002 (ip), vehicle: saline) 146 % of control; (dose: 15.0 mg/kg/injection, schedule: Q04DX003 (ip), vehicle: saline) 136 % of control; (dose: 19.0 mg/kg/injection, schedule: Q01DX001 (ip), vehicle: saline, evaluated on day 5) 142 % of control; (dose: 19.0 mg/kg/injection, schedule: Q01DX001 (ip), vehicle: saline, evaluated on day 60) 142 % of control. Besides, the T/C (dose: 20.0 mg/kg/injection, schedule: Q04DX003 (ip), vehicle: water) was 125 % of control; the T/C (dose: 22.0 mg/kg/injection, schedule: Q04DX003 (ip), vehicle: saline) was 145 % of control; the T/C (dose: 38.0 mg/kg/injection, schedule: Q01DX001 (ip), vehicle: saline, evaluated on day 5) was 149 % of control; the T/C (dose: 38.0 mg/kg/injection, schedule: Q01DX001 (ip), vehicle: saline, evaluated on day 60) is 149 % of control; the T/C (dose: 125.0 mg/kg/injection, schedule: Q01DX001 (ip), vehicle: saline) was 127 % of control [8 of 10 alive]. In addition, the survivor count (dose: 4.0 mg/kg/injection, schedule: Q01DX009 (ip), vehicle: water) was 10 of 10; the survivor count (dose: 8.0 mg/kg/injection, schedule: Q01DX009 (ip), vehicle: water) is reported as 10 of 10; the survivor count under setting [1] was 6 of 8; the survivor count (dose: 50.0 mg/kg/injection, schedule: Q04DX009 (ip), vehicle: saline) is 3 of 3; the survivor count (dose: 75.0 mg/kg/injection, schedule: Q01DX001 (ip), vehicle: saline) is recorded as 5 of 9; the survivor count (dose: 80.0 mg/kg/injection, schedule: Q04DX003 (ip), vehicle: water) is 10 of 10. The survivor count reads like this: (dose: 83.3 mg/kg/injection, schedule: Q04DX003 (ip), vehicle: saline) 6 of 8; (dose: 150.0 mg/kg/injection, schedule: Q01DX001 (ip), vehicle: saline) 2 of 9 and 8 of 10; (dose: 160.0 mg/kg/injection, schedule: Q04DX003 (ip), vehicle: water) 10 of 10; (dose: 200.0 mg/kg/injection, schedule: Q01DX001 (ip), vehicle: saline) 3 of 10.

In the case of `O=C(O)C(=O)c1ccc(-c2ccccc2)cc1`, the survivor count (dose: 225.0 mg/kg/injection, schedule: Q01DX009 (ip), vehicle: saline with Tween-80) is given as 2 of 6.

Turning to `Cc1cccc(-c2nc3cc(Cl)ccc3c(=O)o2)c1`, the survivor count under setting [2] was 5 of 6.

Turning to `Nc1nc(=O)n(CC(=O)c2ccco2)cc1F`, the survivor count under setting [3] was 3 of 6 and the survivor count (dose: 400.0 mg/kg/injection, schedule: Q01DX009 (ip), vehicle: saline) was 0 of 6.

For `O=S(=O)(Nc1ccc(C(F)(F)F)cc1)c1ccc(C(F)(F)F)cc1`, under setting [4], the survivor count was 4 of 6.

In the case of `COc1ccc(C2CCc3cc(OC)c(OC)cc3C2NC=O)cc1OC` (centres undefined), the survivor count is reported as 6 of 6 (dose: 20.0 mg/kg/injection, schedule: Q01DX009 (ip), vehicle: saline with Tween-80); 6 of 6 (dose: 40.0 mg/kg/injection, schedule: Q01DX009 (ip), vehicle: saline with Tween-80); 6 of 6 (dose: 80.0 mg/kg/injection, schedule: Q01DX009 (ip), vehicle: saline with Tween-80).

For the molecule `COc1ccc2c(Cl)cc(NC(=O)Nc3c(C)cccc3C)nc2c1`, the survivor count is 6 of 6 (dose: 50.0 mg/kg/injection, schedule: Q01DX009 (ip), vehicle: saline with Tween-80) and 5 of 6 under setting [5].

As for `CCN(c1ccccc1)c1cc2c(cc1[N+](=O)[O-])no[n+]2[O-]`, the T/C (dose: 15.0 mg/kg/injection, schedule: Q01DX009 (ip), vehicle: saline with Tween-80) is 128 % of control.

`COc1ccc(C(O)CNC(=O)c2ccccc2)cc1` (centres undefined): under setting [4], the T/C was 125 % of control [5 of 6 alive]. The survivor count under setting [6] is recorded as 6 of 6.

With `COC(=O)C(Br)c1cccc(OC)c1` (centres undefined), the T/C by setting is: under setting [7], 135 % of control; (dose: 400.0 mg/kg/injection, schedule: Q01DX009 (ip), vehicle: saline with Tween-80) 135 % of control.

Regarding `NC(=S)c1c(N)n(C2OC(CO)C(O)C2O)c2ncnc(N)c12` (centres undefined), the T/C under setting [1] is 131 % of control and the T/C (dose: 100.0 mg/kg/injection, schedule: Q04DX003 (ip), vehicle: saline) was 141 % of control [5 of 6 alive].

In the case of `C1CSCCSCCCSCCSC1`, under setting [5], the T/C is 130 % of control.

On to `CC(=O)Nc1ccc(/C=N/Nc2ccc([N+](=O)[O-])cn2)cc1`, for which the survivor count (dose: 31.3 mg/kg/injection, schedule: Q01DX010 (ip), vehicle: saline) is recorded as 6 of 6.

For `O=[N+]([O-])[O-].OCCNCCNCC[OH2+].OCCNCCNCC[OH2+].[Ni+2]`, the survivor count (dose: 50.0 mg/kg/injection, schedule: Q01DX009 (ip), vehicle: saline) is 6 of 6; the survivor count (dose: 100.0 mg/kg/injection, schedule: Q01DX009 (ip), vehicle: saline) was 4 of 6; the survivor count under setting [3] is given as 0 of 6.

With `O=[N+]([O-])c1ccc2c(N=Nc3c(O)ccc4ccccc34)c(O)cc(S(=O)(=O)O)c2c1`, under setting [5], the T/C was 127 % of control.

Turning to `CSc1nnnn1-c1ccccc1`, the T/C (dose: 25.0 mg/kg/injection, schedule: Q01DX009 (ip), vehicle: Klucel (hydroxypropylcellulose) (HPC)) is 130 % of control.

With `CCCCN(C(C)(C)C(SSSC(c1ccc(Cl)cc1)C(C)(C)N(CCCC)S(C)(=O)=O)c1ccc(Cl)cc1)S(C)(=O)=O` (centres undefined), where the note is “dose: 100.0 mg/kg/injection, schedule: Q04DX003 (ip), vehicle: saline with Tween-80”, the survivor count is 3 of 6.

As for `CCCCCCCCCCCC[n+]1ccc2ccccc2c1`, the survivor count runs as follows: (dose: 2.0 mg/kg/injection, schedule: Q01DX010 (ip), vehicle: saline) 1 of 6; (dose: 4.0 mg/kg/injection, schedule: Q01DX010 (ip), vehicle: saline) 0 of 6; (dose: 8.0 mg/kg/injection, schedule: Q01DX010 (ip), vehicle: saline) 0 of 6.

On to `C(=C\c1cccnc1)/c1ccncc1`, for which the T/C was 133 % of control (dose: 50.0 mg/kg/injection, schedule: Q01DX009 (ip), vehicle: Klucel (hydroxypropylcellulose) (HPC)) and 144 % of control (dose: 100.0 mg/kg/injection, schedule: Q01DX009 (ip), vehicle: Klucel (hydroxypropylcellulose) (HPC)). Also, the survivor count is given as 0 of 6 under setting [2] and 0 of 6 under setting [6].

As to `NCCCOc1ccc([N+](=O)[O-])cc1Cl`, under setting [3], the survivor count is given as 2 of 6.

Regarding `CC(=O)[C@]1(O)Cc2c(O)c3c(c(O)c2[C@@H](OC2CC(N)C(O)C(C)O2)C1)C(=O)c1c(O)cccc1C3=O` (some centres undefined), for the setting “dose: 0.65 mg/kg/injection, schedule: Q04DX003 (ip), vehicle: water”, the T/C was 135 % of control. In addition, the survivor count by setting is: (dose: 1.5 mg/kg/injection, schedule: Q04DX003 (ip), vehicle: water) 8 of 8; (dose: 1.8 mg/kg/injection, schedule: Q04DX003 (ip), vehicle: water) 8 of 8.

As to `C=CC(C#N)(C=C)C=C`, the survivor count under setting [7] is given as 0 of 6 and the survivor count under setting [5] is recorded as 0 of 6.

As for `COc1ccc(CN2CC(C)NC(C)C2)cc1` (centres undefined), the survivor count runs as follows: (dose: 25.0 mg/kg/injection, schedule: Q04DX003 (ip), vehicle: water) 6 of 6; (dose: 50.0 mg/kg/injection, schedule: Q04DX003 (ip), vehicle: water) 5 of 6; (dose: 200.0 mg/kg/injection, schedule: Q04DX003 (ip), vehicle: water) 6 of 6; (dose: 400.0 mg/kg/injection, schedule: Q04DX003 (ip), vehicle: water) 1 of 6. In addition, the T/C (dose: 200.0 mg/kg/injection, schedule: Q01DX009 (ip), vehicle: water) was 146 % of control.
